# Measurements from PubChem BioAssay AID2685 (National Center for Advancing Translational Sciences (NCATS), 2010).
# The list shows a part of the results. Shown are side measurements of this screen, not its main read-out; they come without a call. Most of these compounds were active or inconclusive in the main read-out, so they are no random draw. Potencies come from curve fits of mixed quality, noted in brackets.
# Experiment: qHTS Assay for Lipid Storage Modulators in Drosophila S3 Cells;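 as to cell number change: cells counted by Cell Tracker Red CMTPX staining in the red channel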
# Settings: BODIPY lipid droplet fluorescence, 18-24 h; for cell number change: measured here: cell count max response, cells fed with added oleic acid
# How it was run: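 Drosophila S3 cells loaded with oleic acid (400 uM, as added) and compounds at several concentrations; lipid droplets imaged by 488-nm laser-scanning cytometry, 500–530 nm intensity and object ratio to cell channel. Percent activity normalized to 20 uM Triacsin C.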
# [1] = measured here: lipid fluorescence (Fed channel) AC50, cells fed with added oleic acid
# [2] = measured here: cell number channel AC50, cells fed with added oleic acid
smiles,measurement,setting,value
CN1CCN(c2ccccc2NC(=O)c2ccc(OCc3ccccc3)cc2)CC1,cell number change,,148%
same,AC50,[1],"16.4 µM [rising, partial curve]"
Cc1cccc(NC(=O)COc2ccccc2)c1,cell number change,,10.6%
same,AC50,[1],"6.51 µM [falling, single point]"
CC(C)[C@H](NC(=O)N1c2ccccc2NC(=O)[C@@H]1C(C)C)C(=O)N[C@H](Cc1ccccc1)C(=O)O,AC50,[1],"29.1 µM [rising, single point]"
CC(=O)N/C(=C/c1cccnc1)C(=O)Nc1ccc(Cl)cc1,cell number change,,-20.8%
same,AC50,[1],"0.13 µM [falling, full curve, poor fit]"
CCCCCCCCC(=O)NC(NC(=S)N1CCOCC1)C(Cl)(Cl)Cl (configuration not stated),cell number change,,-30.7%
same,AC50,[2],"23.1 µM [falling, single point]"
same,AC50,[1],"23.1 µM [falling, single point]"
Cc1nn(-c2ccccc2)c2c1C(c1cccs1)C(C#N)=C(N)O2 (configuration not stated),AC50,[2],"6.51 µM [rising, single point]"
Cc1ccccc1OCCC(=O)OCC(=O)Nc1c(C)nn(-c2ccccc2)c1C,cell number change,,-30.5%
same,AC50,[2],"0.259 µM [falling, full curve, poor fit]"
same,AC50,[1],"0.411 µM [rising, full curve]"
O=C(NC(=S)NC1CCSC1=O)c1ccccc1 (configuration not stated),cell number change,,13.3%
same,AC50,[2],"0.103 µM [falling, full curve, poor fit]"
CCc1c(C)sc(NC(=O)c2ccco2)c1C(=O)N1CCCCC1,cell number change,,9.8%
same,AC50,[1],"9.2 µM [falling, partial curve, poor fit]"
COc1ccc(C2C(C#N)=C(N)N(c3cccnc3)C3=C2C(=O)CCC3)cc1Cn1cc([N+](=O)[O-])cn1 (configuration not stated),cell number change,,-23.7%
same,AC50,[1],"1.64 µM [falling, partial curve]"
O=C(CN1C(=O)c2ccccc2S1(=O)=O)N1CCN(Cc2ccc3c(c2)OCO3)CC1,cell number change,,6.86%
same,AC50,[1],"23.1 µM [rising, partial curve, poor fit]"
COc1ccc(C(=O)NC(=S)N2CCN(C)CC2)cc1Br,cell number change,,-17.6%
same,AC50,[1],"0.291 µM [rising, full curve, poor fit]"
O=C(NCc1ccccc1)c1cccnc1,cell number change,,4.92%
same,AC50,[1],"0.651 µM [rising, single point]"
CCC(=O)OCC(=O)Nc1cc([N+](=O)[O-])ccc1OC,cell number change,,22.5%
Cc1cc(S(=O)(=O)N2CCCC2)ccc1OCC(=O)N1CCOCC1,cell number change,,-2.54%
same,AC50,[2],"0.0731 µM [falling, full curve, poor fit]"
Cc1cc(C)c[n+](CC(=O)c2ccc(NC(=O)c3ccccc3)cc2)c1,cell number change,,-44.7%
same,AC50,[2],"29.1 µM [falling, single point]"
same,AC50,[1],"23.1 µM [falling, partial curve, poor fit]"
COc1ccc(S(=O)(=O)N2CCOCC2)cc1NC(=O)C1COc2ccccc2O1 (configuration not stated),cell number change,,-22%
same,AC50,[1],"29.1 µM [falling, single point]"
O=C(Nc1cc(C(F)(F)F)ccc1-n1cncn1)c1ccc(Br)cc1,cell number change,,0.414%
O=C(COC(=O)c1ccc2c(=O)n3c(nc2c1)CCC3)Nc1ccccc1F,cell number change,,20.9%
same,AC50,[1],"1.64 µM [rising, full curve, poor fit]"
CCC(C)(C)c1ccc(OCC(=O)N(C)C)c(C(C)(C)CC)c1,cell number change,,-47.8%
same,AC50,[2],"7.31 µM [falling, full curve, poor fit]"
N#C[C@@H]1[C@@H]2C(=O)N(c3ccc4c(c3)OCCO4)C(=O)[C@@H]2C2c3ccccc3C=CN21 (some centres not stated),cell number change,,-20.5%
same,AC50,[1],"16.4 µM [falling, single point]"
COc1ccc(-c2csc(/C(C#N)=C(\O)CSc3nccn3C)n2)cc1OC,cell number change,,-29.5%
same,AC50,[2],"0.411 µM [falling, full curve, poor fit]"
CN1CCCC(OC(=O)c2cc(F)c(F)c(F)c2F)C1 (configuration not stated),cell number change,,-30.9%
same,AC50,[2],"20.6 µM [falling, single point]"
O=C(N/N=C/c1cccn1-c1ccc([N+](=O)[O-])cc1)C(O)c1ccccc1 (configuration not stated),cell number change,,-23.5%
same,AC50,[2],"1.16 µM [falling, full curve, poor fit]"
CCCn1c(Nc2ccccc2)nc2ccccc21,AC50,[1],"0.651 µM [rising, full curve, poor fit]"
COc1ccc(N2CCN(C(=O)COc3ccccc3)CC2)cc1,cell number change,,-25.1%
same,AC50,[2],"0.116 µM [falling, full curve, poor fit]"
CCOC(=O)C(NC(=O)c1ccccc1Cl)(Nc1ccc(C)c(C)c1)C(F)(F)F (configuration not stated),cell number change,,-67.2%
same,AC50,[2],"10.3 µM [falling, partial curve]"
same,AC50,[1],"6.51 µM [falling, full curve]"
COc1ccc(/C=C2\N=C3CCCCCN3C2=O)cc1,cell number change,,-44.3%
same,AC50,[2],"23.1 µM [falling, single point]"
same,AC50,[1],"29.1 µM [falling, single point]"
CC(C)CN(CCCNC(=O)CN1N=C(c2ccc(Cl)cc2)CCC1=O)CC(C)C,cell number change,,29.8%
same,AC50,[2],"3.66 µM [rising, full curve, poor fit]"
same,AC50,[1],"6.51 µM [falling, single point]"
CCOC(=O)N1CCN(C(=O)CSc2nnc(C3COc4ccccc4O3)o2)CC1 (configuration not stated),cell number change,,-0.184%
same,AC50,[1],"0.326 µM [falling, partial curve, poor fit]"
O=C(CN1C(=O)C2CC=CCC2C1=O)Nc1ccc(S(=O)(=O)N2CCOCC2)cc1 (configuration not stated),cell number change,,-15%
CC(C)OCCCNC(=O)c1cc(Sc2ccc(F)cc2)nc2ccccc12,cell number change,,3.47%
same,AC50,[1],"0.411 µM [rising, partial curve, poor fit]"
Cc1ccc(-n2c(=O)[nH]c3c(C(N)=O)nc(CC(C)C)nc32)cc1,AC50,[2],"6.51 µM [rising, single point]"
O=Cc1ccc(N2CCCCCC2)cc1,cell number change,,5.02%
same,AC50,[1],"6.51 µM [falling, single point]"
N#Cc1ccccc1COC(=O)CCCC1=NS(=O)(=O)c2ccccc2N1,cell number change,,-21.5%
same,AC50,[1],"29.1 µM [falling, single point]"
O=C(CSc1cccc[n+]1[O-])Nc1ccccc1Oc1ccccc1,AC50,[2],"0.731 µM [falling, single point]"
CCc1cccc(OCCCCNCCCOC)c1,cell number change,,0.247%
same,AC50,[1],"0.116 µM [falling, full curve, poor fit]"

# Seven entries from above, as tab-separated lines.
smiles	measurement	setting	value
CC(=O)N/C(=C/c1cccnc1)C(=O)Nc1ccc(Cl)cc1	AC50	[1]	0.13 µM [falling, full curve, poor fit]
COc1ccc(C2C(C#N)=C(N)N(c3cccnc3)C3=C2C(=O)CCC3)cc1Cn1cc([N+](=O)[O-])cn1 (configuration not stated)	cell number change		-23.7%
CCC(C)(C)c1ccc(OCC(=O)N(C)C)c(C(C)(C)CC)c1	cell number change		-47.8%
N#C[C@@H]1[C@@H]2C(=O)N(c3ccc4c(c3)OCCO4)C(=O)[C@@H]2C2c3ccccc3C=CN21 (some centres not stated)	cell number change		-20.5%
CCCn1c(Nc2ccccc2)nc2ccccc21	AC50	[1]	0.651 µM [rising, full curve, poor fit]
CC(C)OCCCNC(=O)c1cc(Sc2ccc(F)cc2)nc2ccccc12	cell number change		3.47%
CCc1cccc(OCCCCNCCCOC)c1	cell number change		0.247%
